# Measured values as given in PubChem BioAssay AID504375 (National Center for Advancing Translational Sciences (NCATS), 2011).
# By UniProt entry, the sequences of proteins in these tests, tags left out.
# UniProt Q01196, whole entry, looked up: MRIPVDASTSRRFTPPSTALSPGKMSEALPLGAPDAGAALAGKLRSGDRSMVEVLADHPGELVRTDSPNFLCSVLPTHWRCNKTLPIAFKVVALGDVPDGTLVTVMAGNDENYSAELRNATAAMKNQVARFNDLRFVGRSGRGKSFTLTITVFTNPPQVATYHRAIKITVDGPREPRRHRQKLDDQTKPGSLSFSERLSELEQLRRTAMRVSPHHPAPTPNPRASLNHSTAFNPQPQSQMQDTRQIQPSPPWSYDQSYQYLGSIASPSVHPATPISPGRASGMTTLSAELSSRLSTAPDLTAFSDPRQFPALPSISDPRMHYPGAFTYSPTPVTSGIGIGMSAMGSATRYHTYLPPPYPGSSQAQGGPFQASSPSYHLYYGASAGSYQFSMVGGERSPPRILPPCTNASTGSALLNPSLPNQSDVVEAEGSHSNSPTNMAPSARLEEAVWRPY
# UniProt Q13951, whole entry, looked up: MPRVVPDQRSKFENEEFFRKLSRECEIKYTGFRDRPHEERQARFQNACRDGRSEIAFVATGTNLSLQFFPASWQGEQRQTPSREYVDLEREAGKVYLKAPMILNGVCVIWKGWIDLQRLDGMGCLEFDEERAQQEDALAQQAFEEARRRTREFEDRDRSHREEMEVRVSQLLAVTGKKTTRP
# In all, about 1,600 compounds went through this assay and about 25 (2%) were called active. Inconclusive results (about 7%) are left out. The call rests on the fitted dose curve; in most records, active means well fitted inhibition curve with a large enough effect; inconclusive means small, poorly fitted or top-dose-only effect, or effect the other way; inactive means no such curve, though single readings can be large or run the other way. The list shows a part of the results.
# Molecular target: Runt-related transcription factor 1 (Homo sapiens) + Core-binding factor subunit beta (Homo sapiens) (UniProt Q01196+Q13951)
# Experiment: qHTS Assay for Compounds Blocking the Interaction Between CBF-beta and RUNX1 for the Treatment of Acute Myeloid Leukemia: Hit Validation with Orthogonal Assay
# Conditions: CBFbeta-RUNX1 binding orthogonal assay, biochemical; series mostly up to 41 µM; activity change, negative = inhibition: at the top concentration
# In short: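 This is an orthogonal TR-FRET assay. His6-CBF-beta and biotin-RUNX1 (30 nM each) were preincubated with compound for 30 min, then Tb-anti-His antibody (0.44 ng) and streptavidin-XL665 (5 nM) were added. The signal was read after 90 min.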
# On the % scale 0 is the no-effect control and ±100 the full control effect; potency means the concentration at half of the fitted maximal effect.
SMILES,"activity change, negative = inhibition",Potency
Nc1ccn([C@@H]2O[C@H](CO)[C@@H](O)[C@@H]2O)c(=O)n1,inactive: -5.86% [at 82.4 µM],–
Cn1c(=O)c([N+](=O)[O-])c(NCc2ccccc2Cl)c2ccccc21,inactive: 2.23%,–
Cc1c(C(=O)/C=C/N(C)C)nnn1-c1ccc(Cl)c(Cl)c1,inactive: 5.85%,–
CC(C)NC(=O)Nc1cccc(Cl)c1,inactive: 14.8%,–
Cc1nc(-c2cc(C#N)c(Sc3cccc(C(F)(F)F)c3)nc2C)cs1,inactive: 0.196%,–
CCOC(=O)C(=CNNc1c(C)csc1C(=O)OC)C(=O)OCC,inactive: 0.82%,–
Cc1nc([N+](=O)[O-])cn1C(C)C,inactive: -1.09%,–
Cc1ccc(Nc2ccccc2)nn1,inactive: -1.1%,–
Cn1nc2c3ccccc3n(Cc3ccccc3)c2nc1=S,inactive: -0.881%,–
NNC(=O)c1ccc(Cn2cc(Br)cn2)o1,inactive: 10%,–
CCOc1ccc2nc(N/C(N)=N/C(=S)Nc3cccc(OC)c3)nc(C)c2c1,inactive: 5.46%,–
O=[N+]([O-])c1cc(Cl)cc2c1nc(NCCO)c1ccccc12,inactive: 11.2%,–
Cc1nc2c(c(=O)c3ccccc3n2C)c(=O)n1-c1ccccc1,inactive: 1.95%,–
CC(=O)Oc1ccc(C(=O)[C@H]2[C@H]3C(=O)N(c4ccc(C)cc4C)C(=O)[C@H]3[C@@H]3C=CC=NN32)cc1,inactive: 30.8%,–
CCOC(=O)C1=C(N)Oc2c(oc(CO)cc2=O)C1c1ccc(Cl)cc1 (stereo not given),inactive: 3.21%,–
COC(=O)c1scc(C)c1NC(=O)/C=C/C(=O)O,inactive: -12.4%,–
O=C(O)C1Nc2c(O)cc(Cl)c([N+](=O)[O-])c2C2C=CCC12 (stereo not given),inactive: -29.8%,–
CC(C)(O)P(=O)(O)CCc1ccccc1,inactive: 15.2%,–
CCC(=O)Nc1cccc(-c2cn3cccc(C)c3n2)c1,inactive: 1.54%,–
CCNC(=O)NC(=O)c1csc([N+](=O)[O-])c1,inactive: 48.8%,–
CN1CCN(C(=O)C23CC4CC(C)(CC(C)(C4)C2)C3)CC1,inactive: -9.9%,–
Cc1cc(NS(=O)(=O)c2ccc(NC(=O)CCSc3ccc(F)cc3)cc2)nc(C)n1,inactive: 1.09%,–
COc1ccc(NC(=O)CCC(=O)N/N=C/c2ccncc2)cc1,inactive: 6.41%,–

SMILES,"activity change, negative = inhibition",Potency
Nc1ccc2c(c1)nnn2-c1ccccc1,inactive: 0.477%,–
Cc1cc(C)cc(NCCC#N)c1,inactive: -10.6%,–
CCCc1cc(=O)c2ccc(OC/C(C)=N/O)cc2o1,inactive: -10.5%,–
Cc1nc([N+](=O)[O-])cn1CC(O)c1ccc(Cl)cc1 (stereo not given),inactive: 6.18%,–
Cc1ccc(S(=O)(=O)N(C)C)cc1[N+](=O)[O-],inactive: 11.9%,–
Cc1ccc(NC(=O)CSc2n[nH]c(N)n2)cc1S(=O)(=O)N1CCOCC1,inactive: 8.81%,–
CC(=O)c1nnn(-c2ccc(F)cc2F)c1C,inactive: -8.38%,–
O=S(=O)(c1ccc(C(F)(F)F)cc1)N1CCCN(c2ccc(C(F)(F)F)cn2)CC1,inactive: -8%,–
CC(=O)Nc1ccc(S(=O)(=O)N2CCN(CC(=O)N3CCOCC3)CC2)cc1,inactive: -4.01%,–
Cc1cc(=O)[nH]c(SCC(=O)NN(c2ccccc2)c2ccccc2)n1,inactive: 6.04%,–
O=C(O)c1ccccc1C(=O)Nc1ccccc1[N+](=O)[O-],inactive: 6.23%,–
CCN(CC)C(=O)CSc1nnc2nnc3cc(C)ccc3n12,inactive: 84%,–
COc1ccccc1N1C(=O)C=C(Sc2nc(C)cc(C)n2)C1=O,inactive: 5.51%,–
COc1cc(/C=N/NC(=O)Cn2cnc3c2c(=O)n(C)c(=O)n3C)ccc1O,inactive: -3.3%,–
COc1ccc(C(=O)CN2C(=O)c3ccccc3S2(=O)=O)cc1,inactive: 4.49%,–
Cc1ccccc1Nc1ncc(C#N)c(N)n1,inactive: 5.82%,–
COc1cc(N=Nc2ccccc2C(=O)O)ccc1O,inactive: 37.1%,–
COc1ccc(N/C=C/C(=O)c2ccc(OC)c(OC)c2)cc1,inactive: 20.7%,–
COc1cccc(C2Oc3ccccc3C3CC(c4cccs4)=NN32)c1 (stereo not given),inactive: -4.17%,–
O=C(N/N=C/C(Br)=C/c1ccccc1)C(O)c1ccccc1 (stereo not given),inactive: 8.96%,–
COc1cccc(/C=N/NC(=O)Cn2cnc3c2c(=O)n(C)c(=O)n3C)c1,inactive: 12.8%,–
CC1SCC(NC(=O)c2ccc(Cl)cc2)CS1 (stereo not given),inactive: -3.1%,–
Cc1onc(-c2c(Cl)cccc2Cl)c1C(=O)c1ccc(F)cc1,inactive: -0.245%,–

SMILES,"activity change, negative = inhibition",Potency
O=C(CS(=O)(=O)c1ccc(C(F)(F)F)cn1)NNC(=O)c1ccccc1,inactive: -6.59%,–
COc1cccc(/C=N/NC(=O)Cn2nc([N+](=O)[O-])cc2C)c1,inactive: 4.69%,–
Cc1ccc(Cn2nc(C)cc2C(=O)Nc2ccc(Cl)cc2)cc1,inactive: 5.65%,–
CC(=O)c1sc(-c2ccccc2)cc1NS(=O)(=O)c1ccc(C)cc1,inactive: 14.3%,–
COc1cccc(/C=N/NC(=O)c2cnccn2)c1OC,inactive: 12.2%,–
O=Cc1ccc(O)c2ncccc12,inactive: 29.7%,–
CC(C)NC(=O)NNC(=O)Cn1nnc(-c2cccc(Cl)c2Cl)n1,inactive: 2.25%,–
O=C(Oc1ccc(NC(=O)c2cc3c(cc2Br)OCO3)cc1)c1ccccc1,inactive: 4.8%,–
COC(=O)c1cnc(Nc2cccc(C(F)(F)F)c2)c([N+](=O)[O-])c1,inactive: 31.8%,–
CC1CC(OC(=O)CN2CCCCC2)CC(C)(C)C1 (stereo not given),inactive: 7.39%,–
CC(O)(c1ccccc1)C(c1ccccc1)C1CCCCN1 (stereo not given),inactive: -1.71%,–
O=C1CC(N2CCN(S(=O)(=O)c3ccccc3)CC2)C(=O)N1c1ccccc1 (stereo not given),inactive: 3.16%,–
CCOC(=O)C1(C)C=C(Nc2cccc(OC)c2)C(=O)N1c1ccccc1 (stereo not given),inactive: 2.85%,–
NNC(=O)c1ccc(COc2cccc3ccccc23)o1,inactive: 14%,–
O=C(O)c1ccccc1C1Nc2ccccc2C(=O)N1CCCN1CCOCC1 (stereo not given),inactive: -5.48%,–
CC(=O)c1cc(O)c2ccccc2c1O,inactive: 54.6%,–
CCOC(=O)c1c(C)n(C)c2ccc(OC)c(NC(=O)CCN3CCC(Cc4ccccc4)CC3)c12,inactive: -10.7%,–
CC(=O)c1ccc(Sc2ccccc2)c([N+](=O)[O-])c1,inactive: 17.1%,–
CCOc1ccc(C2C3=C(CCCC3=O)OC(N)=C2[N+](=O)[O-])cc1 (stereo not given),inactive: 19.4%,–
Oc1ccc2ccccc2c1N=Nc1nccs1,inactive: 53.1%,–
CN(C)CCCNc1cc(C(C)(C)C)nc2c(-c3ccccc3)cnn12,inactive: 9.74%,–
COC(=O)c1sccc1NC(=O)CC1C(=O)NCCN1C(=O)Nc1ccccc1 (stereo not given),inactive: 6.19%,–
NC(=O)c1c(NC(=O)Cn2nc(C(=O)O)c3ccccc3c2=O)sc2c1CCCC2,inactive: 3.38%,–

# Rewritten tab-delimited: entries from further up
SMILES	activity change, negative = inhibition	Potency
CC(C)(O)P(=O)(O)CCc1ccccc1	inactive: 15.2%	–
CCC(=O)Nc1cccc(-c2cn3cccc(C)c3n2)c1	inactive: 1.54%	–
CCNC(=O)NC(=O)c1csc([N+](=O)[O-])c1	inactive: 48.8%	–
CN1CCN(C(=O)C23CC4CC(C)(CC(C)(C4)C2)C3)CC1	inactive: -9.9%	–
Cc1cc(NS(=O)(=O)c2ccc(NC(=O)CCSc3ccc(F)cc3)cc2)nc(C)n1	inactive: 1.09%	–
COc1ccc(NC(=O)CCC(=O)N/N=C/c2ccncc2)cc1	inactive: 6.41%	–
Nc1ccc2c(c1)nnn2-c1ccccc1	inactive: 0.477%	–
Cc1cc(C)cc(NCCC#N)c1	inactive: -10.6%	–
CCCc1cc(=O)c2ccc(OC/C(C)=N/O)cc2o1	inactive: -10.5%	–
Cc1nc([N+](=O)[O-])cn1CC(O)c1ccc(Cl)cc1 (stereo not given)	inactive: 6.18%	–
Cc1ccc(S(=O)(=O)N(C)C)cc1[N+](=O)[O-]	inactive: 11.9%	–

# Further records follow:

SMILES,"activity change, negative = inhibition",Potency
COc1cccc(/C=N/NC(=O)c2ccc3nc[nH]c3c2)c1,inactive: 10.1%,–
CC(=O)N1N=C2c3ccccc3CCC2C1c1cccs1 (stereo not given),inactive: 7.29%,–
O=C(/C=C/c1cn(CC(O)CN2CCCCC2)c2ccccc12)c1ccccc1 (stereo not given),inactive: 7.34%,–
CNS(=O)(=O)c1ccc2ccccc2c1,inactive: -5.64%,–
Cc1ccc(Cl)cc1NC(=S)N(CCN(C)C)C(C)c1ccccn1 (stereo not given),–,active: 1220 nM
Cc1ccc(C(=O)N/C(=C\c2ccc(C)o2)C(=O)O)cc1,inactive: 0.428%,–
O=c1[nH]c(CSc2cccc[n+]2[O-])nc2ccccc12,inactive: 8.03%,–
Cc1onc(-c2c(Cl)cccc2Cl)c1C(=O)N=C(N)N1CC(C)OC(C)C1 (stereo not given),inactive: 0.6%,–
CCOC(=O)CN1NC2(CCCCCC2)NC1=S,inactive: 6.84%,–
Nn1c(SCc2cccc(Br)c2)nnc1-c1cccnc1,inactive: 7.19%,–
Oc1ccc2ccccc2c1C=Nc1ccccc1,inactive: 27.2%,–
O=C(O)c1cc2ccccc2cc1Nc1ccccc1,inactive: 14.8%,–
O=C1CC(Sc2ccc(Cl)cc2)C(=O)N1c1ccc2c(c1)OCCO2 (stereo not given),inactive: -14.8%,–
Cc1cc(C)n(CC(=O)N/N=C/c2c[nH]c3ccccc23)n1,inactive: 2.59%,–
CC(C)(C)c1ccc(CCC2OCC(C[N+]3(C)CCOCC3)O2)cc1 (stereo not given),inactive: 3.25%,–
CC(C)(NC(=O)c1cc(Cl)c2ccccc2c1O)C(=O)O,inactive: 30.7%,–
Nc1cc(=O)[nH]c(SCC(=O)Nc2cc(Cl)ccc2Cl)n1,inactive: 8.5%,–
CCc1ccc(/C=N/N2CCN(c3ccccn3)CC2)cc1,inactive: -1.44%,–
Nc1ccc(C(=O)C(=O)c2ccc(N)cc2)cc1,inactive: 8.11%,–
O=C(NN1C(=O)/C(=C/c2cccs2)SC1=S)c1cccnc1,inactive: 33.7%,–
Cc1cccc(CSc2nnc([C@@H]3CCCN3)o2)c1,inactive: -12.5%,–
Cc1ccnn1CC(=O)N/N=C/c1cn[nH]c1-c1ccccc1,inactive: 3.54%,–
Cc1nnc(NC(=O)c2ccccc2NC(=O)c2ccccc2)s1,inactive: -23.7%,–

SMILES,"activity change, negative = inhibition",Potency
Cc1[nH]c(=O)[nH]c1C(=O)CCCCC(=O)OCC(=O)Nc1ccccn1,–,active: 44.7 nM
O=C(O)CCC(=O)NCC(=O)c1ccc(F)cc1,inactive: 7.94%,–
Cc1cccc(Nc2nc(N)nc(CCl)n2)c1,inactive: -9.59%,–
CC(=O)C1=C(C)OC(N)=C(C#N)C1c1cccc2ccccc12 (stereo not given),inactive: 6.58%,–
O=C1Nc2ccccc2C1(O)Cc1ccccn1 (stereo not given),inactive: 4.27%,–
Cc1nnsc1-c1nnc(SCC(=O)c2ccc(F)cc2)n1C1CC1,inactive: 0.183%,–
CCC1(C)N=C(N)Nc2nc3cc(C)c(C)cc3n21 (stereo not given),inactive: 1.86%,–
CC(=O)Oc1ccc(C(=O)Nc2cccc(-c3nnc(-c4ccco4)o3)c2)cc1,inactive: -5.88%,–
CN1CCN(c2nc3ccccn3c(=O)c2/C=C(\C#N)S(=O)(=O)c2ccccc2)CC1,inactive: 22.3%,–
CC(C)(C)c1cc(NCc2ccccn2)n2ncc(-c3ccccc3)c2n1,inactive: -6.55%,–
CC(=O)c1cnn(-c2ccc(Cl)c(Cl)c2Cl)c1C,inactive: -8.81%,–
O=c1c2cc(-c3ccccc3)sc2nc2n1N=C(c1cccs1)CS2,inactive: 11.4%,–
Cc1cc(-c2ccccc2C(=O)Nc2ccccc2O)on1,inactive: -2.53%,–
COC(=O)Cc1[nH]c(Cl)nc1C(N)=O,inactive: -1.6%,–
Oc1ccc(/C=N/NC(=S)Nc2cccnc2)c(O)c1,inactive: 7.04% [at 82.4 µM],–
CCOC(=O)CN(C(=O)c1ccccc1[N+](=O)[O-])C(C)(C)C,inactive: -0.6%,–
COCCCn1c(=O)/c(=C\c2ccccc2OC(C)C)s/c1=C(/C#N)C(=O)Nc1ccc(C(=O)O)cc1,inactive: 3.47%,–
COc1cc(OC)c(C2C(C#N)=C(C)NC(C)=C2C#N)c(C(=O)O)c1,inactive: 4.34%,–
Cc1onc(-c2c(Cl)cccc2Cl)c1C(=O)Nc1nc(C(C)(C)C)cs1,inactive: 6.68%,–
c1csc(-c2nc3ccccc3s2)c1,inactive: 4.71%,–
CSc1cccc(NC(=O)Nc2ccccc2C(N)=O)c1,inactive: 3.24%,–
COC(=O)c1[nH]c(C)c(/C(O)=C2\C(=O)C(=O)N(CCN3CCOCC3)C2c2ccc(C)o2)c1C (stereo not given),inactive: -1.06%,–
O=C(O)c1cc(O)c2c(c1)[C@H]([C@H]1c3cc(C(=O)O)cc(O)c3C(=O)c3c(O[C@@H]4OC(CO)C(O)C(O)C4O)cccc31)c1cccc(O[C@@H]3OC(CO)C(O)C(O)C3O)c1C2=O (stereo not given in full),–,active: 2510 nM
